Reference: PubChem BioAssay AID652272 (Drosophila RNAi Screening Center, 2013)

Assay: 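Finding fly genes that regulate Hedgehog signal transduction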 (primary screen)
System: Drosophila clone 8 (Cl8) cells
Reagent: long dsRNA against Drosophila genes
Detection: 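Firefly light from a Hedgehog-responsive ptc promoter reporter and Renilla reference light, both read on a plate reader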
Direction: firefly Hh reporter signal: higher = more ptc reporter light; Renilla reference signal: higher = more Renilla control light
Hit rule: 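Hit when the z-score averaged over two replicates is under -2 or over +3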
Calls: active = hit: reporter lowered or raised; inactive = not a hit
The deposit covers about 21,000 reagents; below is an unselected part of those with a known target gene and a result. Of all reagents, 503 (2.4%) got an active call. 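Raw plate light values, not normalised; calls rest on replicate z-scores that were not deposited; hits include reporter decreases as well as increases.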 The numbers tell different reagents against one gene apart. A plus sign joins genes that one reagent is predicted to hit. The record does not give: the amount of reagent, the time to read-out.

| target | reagent no. | firefly Hh reporter signal, replicate 1 | firefly Hh reporter signal, replicate 2 | firefly Hh reporter signal, replicate 3 | Renilla reference signal, replicate 1 | Renilla reference signal, replicate 2 | Call |
| --- | --- | --- | --- | --- | --- | --- | --- |
| Trf | 1 | 1.12e5 | 48932 | – | 3059 | 4837 | inactive |
| CG14968 | 1 | 1.37e5 | 57072 | – | 5360 | 3829 | inactive |
| CG11755 | 1 | 87769 | 1.43e5 | – | 2236 | 4384 | inactive |
| pug | 1 | 57785 | 97104 | – | 2329 | 2726 | inactive |
| Tango5 | 1 | 74880 | 62688 | – | 1869 | 1368 | inactive |
| CG2533 | 1 | 1.26e5 | 3.85e5 | – | 3046 | 15635 | inactive |
| Dsk | 1 | 68233 | 1.02e5 | – | 2331 | 2905 | inactive |
| CG45002 | 1 | 89818 | 2.98e5 | – | 2867 | 12816 | inactive |
| DAAM | 1 | 5.58e5 | 99240 | – | 3757 | 3757 | inactive |
| gcl | 1 | 76569 | 25882 | – | 2595 | 977 | inactive |
| jef | 1 | 1.15e5 | 49542 | – | 3236 | 4089 | inactive |
| CG15099 | 1 | 99248 | 98131 | – | 5220 | 4033 | inactive |
| GAPcenA | 1 | 38004 | 50988 | – | 5064 | 3677 | inactive |
| dj | 1 | 1.04e5 | 97702 | – | 4277 | 3187 | inactive |
| CG15365 | 1 | 31164 | 26264 | – | 2345 | 1050 | inactive |
| CG32814 | 1 | 5.08e5 | 2.23e5 | – | 23458 | 4998 | inactive |
| tmod | 1 | 5.27e5 | 2.25e5 | – | 28790 | 4250 | inactive |
| tmod | 2 | 73232 | 91782 | – | 2471 | 3338 | inactive |
| tmod | 3 | 97376 | 93267 | – | 3442 | 3252 | inactive |
| tmod | 4 | 52976 | 82641 | – | 790 | 2512 | inactive |
| Septin1 | 1 | 99128 | 2.90e5 | – | 2003 | 10889 | inactive |
| Nlg3 | 1 | 1.99e5 | – | – | 4585 | – | inactive |
| Nlg3 | 2 | 55323 | 1.14e5 | – | 2133 | 3392 | inactive |
| Nlg3 | 3 | 61969 | 88592 | – | 2946 | 3620 | inactive |
| Nlg3 | 4 | 53600 | 86140 | – | 956 | 2580 | inactive |
| CG14190 | 1 | 85275 | 2.08e5 | – | 1881 | 9908 | inactive |
| Neb-cGP | 1 | 1.28e5 | 2.94e5 | – | 3897 | 12081 | inactive |
| Su(var)2-10 | 1 | 84416 | 42144 | – | 2933 | 1046 | inactive |
| St2 | 1 | 1.45e5 | 1.88e5 | – | 4455 | 4836 | inactive |
| CG15098 | 1 | 90645 | 24354 | – | 1921 | 1546 | inactive |
| Or10a | 1 | 92923 | 2.69e5 | – | 2979 | 9501 | inactive |
| CG14974 | 1 | 78140 | 45088 | – | 2138 | 2960 | inactive |
| Adgf-D | 1 | 55571 | 56804 | – | 1456 | 1600 | inactive |
| CG13558 | 1 | 86589 | 53378 | – | 2186 | 4044 | inactive |
| Cap-D3 | 1 | 78149 | 53528 | – | 1970 | 5780 | inactive |
| CG9849 | 1 | 1.19e5 | 98153 | – | 3211 | 8602 | inactive |
| COX5A | 1 | 69091 | 96349 | – | 1665 | 2098 | inactive |
| CG42814 | 1 | 80465 | 83677 | – | 2636 | 1965 | inactive |
| Tpc2 | 1 | 71952 | 47404 | – | 1659 | 3239 | inactive |
| CG17190 | 1 | 4.43e5 | 90860 | – | 23447 | 2566 | inactive |
| Jon99Cii | 1 | 1.43e5 | 1.82e5 | – | 5024 | 5892 | inactive |
| CG2889 | 1 | 65447 | 1.52e5 | – | 1840 | 5952 | inactive |
| CG12521 | 1 | 54988 | 45472 | 37589 | 4896 | 3072 | inactive |
| bcd + CR14578 | 1 | 43035 | 2.28e5 | – | 739 | 9097 | inactive |
| CG13474 | 1 | 78459 | – | – | 2778 | 2640 | inactive |
| Etfb | 1 | 1.12e5 | 1.00e5 | – | 2480 | 2939 | inactive |
| CG7083 | 1 | 51511 | 58171 | – | 6460 | 4482 | inactive |
| S-Lap8 | 1 | 1.57e5 | 6.73e5 | 1.11e5 | 7616 | 40980 | inactive |
| Cortactin | 1 | 1.48e5 | 88944 | – | 6192 | 3851 | inactive |
| CG11842 | 1 | 1.26e5 | 1.41e5 | – | 1200 | 3835 | inactive |
| CG4572 | 1 | 86793 | 68388 | – | 3891 | 2816 | inactive |
| CG4271 | 1 | 1.27e5 | 1.05e5 | – | 2984 | 2480 | inactive |
| mRpS10 | 1 | 1.01e5 | 83552 | – | 3643 | 2650 | inactive |
| CG6805 | 1 | 1.74e5 | 1.02e5 | – | 7600 | 4490 | inactive |
| mthl11 | 1 | 2.21e5 | – | – | 3697 | – | inactive |
| Sln | 1 | 79457 | 61332 | – | 2244 | 4051 | inactive |
| CG42597 | 1 | 1.21e5 | 2.32e5 | – | 2996 | 10115 | inactive |
